Some of the results follow.
Columns and labels:
Experiment in all cases: log2 fold change, soluble protein after heating vs DMSO (PISA); higher = thermal stabilisation; K562 lysate, 10 uM; active = over 0.2 and 3.5 SD of the protein, either way, in both replicates (recomputed)
[1] = compound: C1=CC=C(C=C1)[C@H](COC2=CC3=C(C=C2)NC(=O)N3)NC(=O)C4=CC=CN(C4=O)CC5=CC(=C(C=C5)F)F
Outline: (§1)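 The values are log-two fold changes in thermal stability compared with solvent controls and come from duplicates. They were obtained by TMTpro 16plex LC-MS/MS, with channel sums equalised, on the supernatant after 21,000xg for 90 min. That supernatant came from crude K562 extract at 1 mg/mL protein treated with 10 μM compound for 30 min, heated for 3 min across 48°C-58°C, pooled and brought to 0.5% NP-40 at 4°C.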

Sequences of proteins named here, by UniProt entry; tags and fusion partners are left off. A change or cut given only in a name is not applied to a line headed by its entry.
UniProt O43303: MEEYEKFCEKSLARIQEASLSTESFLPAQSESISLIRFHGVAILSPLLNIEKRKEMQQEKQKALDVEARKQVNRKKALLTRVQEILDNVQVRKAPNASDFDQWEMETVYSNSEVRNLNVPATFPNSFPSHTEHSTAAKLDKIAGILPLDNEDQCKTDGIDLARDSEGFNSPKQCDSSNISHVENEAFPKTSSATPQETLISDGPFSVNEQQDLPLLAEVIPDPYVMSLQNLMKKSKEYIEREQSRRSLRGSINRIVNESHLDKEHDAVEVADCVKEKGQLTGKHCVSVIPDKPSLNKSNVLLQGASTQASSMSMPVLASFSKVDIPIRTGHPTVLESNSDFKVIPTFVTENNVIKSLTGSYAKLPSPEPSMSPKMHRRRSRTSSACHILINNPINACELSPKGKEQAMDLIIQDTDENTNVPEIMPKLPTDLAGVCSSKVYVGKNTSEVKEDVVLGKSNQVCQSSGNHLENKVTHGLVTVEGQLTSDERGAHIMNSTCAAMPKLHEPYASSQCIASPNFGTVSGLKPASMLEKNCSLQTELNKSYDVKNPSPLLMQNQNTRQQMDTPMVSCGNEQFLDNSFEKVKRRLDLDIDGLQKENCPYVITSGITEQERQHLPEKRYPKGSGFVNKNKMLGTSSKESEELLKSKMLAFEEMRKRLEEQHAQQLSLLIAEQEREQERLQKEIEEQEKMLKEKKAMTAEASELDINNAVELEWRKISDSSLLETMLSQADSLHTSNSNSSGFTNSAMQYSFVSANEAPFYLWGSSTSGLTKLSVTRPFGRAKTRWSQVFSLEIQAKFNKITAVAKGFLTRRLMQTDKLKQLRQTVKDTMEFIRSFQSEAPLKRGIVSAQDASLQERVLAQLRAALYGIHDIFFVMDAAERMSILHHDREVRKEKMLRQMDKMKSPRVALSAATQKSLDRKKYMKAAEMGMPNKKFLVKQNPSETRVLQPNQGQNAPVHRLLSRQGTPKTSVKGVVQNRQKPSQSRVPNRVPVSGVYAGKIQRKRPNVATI
UniProt Q567U6, whole entry, looked up: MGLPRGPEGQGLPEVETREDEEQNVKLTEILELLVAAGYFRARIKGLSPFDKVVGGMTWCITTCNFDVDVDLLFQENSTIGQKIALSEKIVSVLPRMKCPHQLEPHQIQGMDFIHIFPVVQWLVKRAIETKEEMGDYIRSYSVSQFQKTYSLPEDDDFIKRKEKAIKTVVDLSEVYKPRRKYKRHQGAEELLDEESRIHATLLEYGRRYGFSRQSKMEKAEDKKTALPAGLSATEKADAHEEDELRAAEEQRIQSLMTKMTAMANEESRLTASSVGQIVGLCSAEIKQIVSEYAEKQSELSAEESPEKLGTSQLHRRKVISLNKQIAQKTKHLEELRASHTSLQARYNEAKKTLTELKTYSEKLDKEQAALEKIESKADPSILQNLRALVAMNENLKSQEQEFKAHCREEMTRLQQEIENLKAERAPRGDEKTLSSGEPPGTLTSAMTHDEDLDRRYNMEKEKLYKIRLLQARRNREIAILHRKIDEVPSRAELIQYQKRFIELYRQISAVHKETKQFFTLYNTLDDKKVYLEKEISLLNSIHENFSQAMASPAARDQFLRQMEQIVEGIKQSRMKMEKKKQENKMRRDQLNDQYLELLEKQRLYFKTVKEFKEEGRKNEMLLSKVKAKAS
UniProt P20248, whole entry, looked up: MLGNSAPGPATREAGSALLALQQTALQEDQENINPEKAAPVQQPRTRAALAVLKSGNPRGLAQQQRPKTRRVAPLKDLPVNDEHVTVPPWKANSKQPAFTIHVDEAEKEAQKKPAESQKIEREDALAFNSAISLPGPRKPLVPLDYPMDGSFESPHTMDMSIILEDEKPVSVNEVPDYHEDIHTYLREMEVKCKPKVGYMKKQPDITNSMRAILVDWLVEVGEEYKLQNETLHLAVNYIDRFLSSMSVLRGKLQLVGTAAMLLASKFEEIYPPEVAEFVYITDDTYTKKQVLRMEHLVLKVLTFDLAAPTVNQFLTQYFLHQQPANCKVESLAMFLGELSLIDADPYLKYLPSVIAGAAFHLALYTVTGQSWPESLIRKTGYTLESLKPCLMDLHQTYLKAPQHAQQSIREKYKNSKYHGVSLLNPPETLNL
UniProt Q14790: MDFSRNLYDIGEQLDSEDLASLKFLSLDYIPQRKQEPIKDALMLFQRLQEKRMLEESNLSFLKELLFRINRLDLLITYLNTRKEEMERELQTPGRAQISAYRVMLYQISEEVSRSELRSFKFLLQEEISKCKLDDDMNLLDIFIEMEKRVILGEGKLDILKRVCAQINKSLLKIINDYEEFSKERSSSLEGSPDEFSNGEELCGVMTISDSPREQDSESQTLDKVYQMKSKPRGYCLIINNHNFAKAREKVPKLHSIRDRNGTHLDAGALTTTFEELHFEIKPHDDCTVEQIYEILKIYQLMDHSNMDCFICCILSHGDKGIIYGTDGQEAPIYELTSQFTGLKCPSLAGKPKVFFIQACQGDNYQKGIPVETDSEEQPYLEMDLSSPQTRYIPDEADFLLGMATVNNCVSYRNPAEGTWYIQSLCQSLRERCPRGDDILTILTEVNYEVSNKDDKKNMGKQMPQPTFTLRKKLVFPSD
UniProt Q15762: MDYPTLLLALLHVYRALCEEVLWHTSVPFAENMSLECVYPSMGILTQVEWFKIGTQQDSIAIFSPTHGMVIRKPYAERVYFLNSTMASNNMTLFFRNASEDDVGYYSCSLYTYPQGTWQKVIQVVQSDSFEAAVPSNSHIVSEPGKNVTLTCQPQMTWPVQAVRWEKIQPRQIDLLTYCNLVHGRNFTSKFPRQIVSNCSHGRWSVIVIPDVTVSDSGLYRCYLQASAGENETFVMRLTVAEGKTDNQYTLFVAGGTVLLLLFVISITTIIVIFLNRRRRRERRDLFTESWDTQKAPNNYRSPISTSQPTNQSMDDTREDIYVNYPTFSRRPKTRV
UniProt Q8IVM0: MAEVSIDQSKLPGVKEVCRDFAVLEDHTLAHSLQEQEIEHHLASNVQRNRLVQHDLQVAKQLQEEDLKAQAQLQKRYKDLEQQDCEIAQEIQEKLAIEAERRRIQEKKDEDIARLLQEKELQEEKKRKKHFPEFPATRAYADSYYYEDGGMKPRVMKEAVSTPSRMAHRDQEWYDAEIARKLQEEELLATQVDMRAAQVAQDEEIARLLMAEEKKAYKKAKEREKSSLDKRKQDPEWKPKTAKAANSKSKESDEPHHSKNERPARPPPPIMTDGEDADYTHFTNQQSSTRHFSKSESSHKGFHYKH
UniProt O60583: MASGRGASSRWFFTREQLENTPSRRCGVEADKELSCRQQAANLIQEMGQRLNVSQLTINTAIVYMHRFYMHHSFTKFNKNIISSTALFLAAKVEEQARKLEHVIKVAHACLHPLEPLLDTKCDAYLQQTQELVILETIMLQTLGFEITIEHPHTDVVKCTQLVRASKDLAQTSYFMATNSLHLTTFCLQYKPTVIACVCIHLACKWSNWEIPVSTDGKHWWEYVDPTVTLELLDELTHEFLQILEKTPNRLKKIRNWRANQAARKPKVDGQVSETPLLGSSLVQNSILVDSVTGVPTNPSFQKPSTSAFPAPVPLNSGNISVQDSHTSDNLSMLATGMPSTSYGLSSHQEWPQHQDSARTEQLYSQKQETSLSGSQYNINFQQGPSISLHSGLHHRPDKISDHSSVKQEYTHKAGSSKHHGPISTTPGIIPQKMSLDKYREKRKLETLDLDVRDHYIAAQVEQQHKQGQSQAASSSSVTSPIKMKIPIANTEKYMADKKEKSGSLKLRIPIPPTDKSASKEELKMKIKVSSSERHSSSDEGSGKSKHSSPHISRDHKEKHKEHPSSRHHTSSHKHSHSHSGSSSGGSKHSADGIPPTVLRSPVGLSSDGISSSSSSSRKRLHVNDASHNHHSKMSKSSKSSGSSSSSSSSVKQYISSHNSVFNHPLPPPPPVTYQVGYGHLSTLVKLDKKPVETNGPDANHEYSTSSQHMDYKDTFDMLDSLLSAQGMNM
UniProt Q9Y2V2: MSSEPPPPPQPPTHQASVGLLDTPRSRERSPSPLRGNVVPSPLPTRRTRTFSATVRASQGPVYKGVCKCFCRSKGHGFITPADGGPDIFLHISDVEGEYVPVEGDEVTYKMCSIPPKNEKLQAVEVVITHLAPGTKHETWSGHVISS
UniProt Q9P031: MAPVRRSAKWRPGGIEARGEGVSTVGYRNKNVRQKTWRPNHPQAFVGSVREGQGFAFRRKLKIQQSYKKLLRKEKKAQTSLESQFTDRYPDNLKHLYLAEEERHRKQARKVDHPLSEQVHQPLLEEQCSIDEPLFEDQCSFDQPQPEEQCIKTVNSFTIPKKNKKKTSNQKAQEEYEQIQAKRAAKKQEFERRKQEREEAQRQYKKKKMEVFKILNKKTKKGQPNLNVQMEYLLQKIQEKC
UniProt P86791: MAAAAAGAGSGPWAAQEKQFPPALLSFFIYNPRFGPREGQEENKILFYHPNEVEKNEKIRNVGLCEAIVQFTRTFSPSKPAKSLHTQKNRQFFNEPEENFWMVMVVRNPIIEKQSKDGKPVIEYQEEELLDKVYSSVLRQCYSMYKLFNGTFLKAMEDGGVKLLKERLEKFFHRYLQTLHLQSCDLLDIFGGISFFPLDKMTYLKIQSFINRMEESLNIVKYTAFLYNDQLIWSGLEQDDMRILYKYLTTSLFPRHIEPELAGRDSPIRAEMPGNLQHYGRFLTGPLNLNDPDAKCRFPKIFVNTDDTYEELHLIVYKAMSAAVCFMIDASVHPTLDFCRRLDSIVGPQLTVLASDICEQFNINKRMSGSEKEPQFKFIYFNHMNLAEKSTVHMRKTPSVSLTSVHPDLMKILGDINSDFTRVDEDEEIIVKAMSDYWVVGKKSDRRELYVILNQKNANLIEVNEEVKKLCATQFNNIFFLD
UniProt Q13191, whole entry, looked up: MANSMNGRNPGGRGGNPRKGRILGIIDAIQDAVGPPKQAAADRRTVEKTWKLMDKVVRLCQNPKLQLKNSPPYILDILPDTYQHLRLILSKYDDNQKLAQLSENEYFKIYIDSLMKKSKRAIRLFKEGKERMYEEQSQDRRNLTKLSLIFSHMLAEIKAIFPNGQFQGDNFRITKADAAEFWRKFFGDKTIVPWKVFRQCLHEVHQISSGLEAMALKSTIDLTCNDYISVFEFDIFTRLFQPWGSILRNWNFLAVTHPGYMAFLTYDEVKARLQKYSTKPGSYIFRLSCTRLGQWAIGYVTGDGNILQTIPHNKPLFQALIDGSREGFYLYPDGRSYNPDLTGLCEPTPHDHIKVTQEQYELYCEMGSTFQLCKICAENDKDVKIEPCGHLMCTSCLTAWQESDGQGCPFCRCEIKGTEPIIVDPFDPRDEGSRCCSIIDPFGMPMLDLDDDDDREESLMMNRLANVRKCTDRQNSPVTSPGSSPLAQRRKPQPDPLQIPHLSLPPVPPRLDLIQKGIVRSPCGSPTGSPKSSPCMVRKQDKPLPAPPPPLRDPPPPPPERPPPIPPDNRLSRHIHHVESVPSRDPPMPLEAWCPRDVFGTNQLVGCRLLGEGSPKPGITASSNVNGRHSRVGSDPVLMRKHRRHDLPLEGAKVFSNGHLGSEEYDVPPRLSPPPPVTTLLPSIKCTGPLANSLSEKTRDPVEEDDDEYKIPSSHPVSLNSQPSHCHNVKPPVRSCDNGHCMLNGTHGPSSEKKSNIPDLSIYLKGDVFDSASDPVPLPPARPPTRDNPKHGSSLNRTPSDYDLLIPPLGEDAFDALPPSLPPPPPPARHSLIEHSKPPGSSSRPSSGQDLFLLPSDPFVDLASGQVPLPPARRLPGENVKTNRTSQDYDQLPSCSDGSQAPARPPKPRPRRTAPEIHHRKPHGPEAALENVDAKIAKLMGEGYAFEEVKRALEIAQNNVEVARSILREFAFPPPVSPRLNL
UniProt P48509: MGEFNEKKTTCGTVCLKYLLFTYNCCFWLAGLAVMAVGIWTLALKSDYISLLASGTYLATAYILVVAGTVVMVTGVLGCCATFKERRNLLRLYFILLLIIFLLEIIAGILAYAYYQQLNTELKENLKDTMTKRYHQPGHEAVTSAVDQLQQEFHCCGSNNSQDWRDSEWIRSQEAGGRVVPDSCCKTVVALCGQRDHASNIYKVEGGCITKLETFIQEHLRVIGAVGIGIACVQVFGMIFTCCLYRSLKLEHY
UniProt P04040: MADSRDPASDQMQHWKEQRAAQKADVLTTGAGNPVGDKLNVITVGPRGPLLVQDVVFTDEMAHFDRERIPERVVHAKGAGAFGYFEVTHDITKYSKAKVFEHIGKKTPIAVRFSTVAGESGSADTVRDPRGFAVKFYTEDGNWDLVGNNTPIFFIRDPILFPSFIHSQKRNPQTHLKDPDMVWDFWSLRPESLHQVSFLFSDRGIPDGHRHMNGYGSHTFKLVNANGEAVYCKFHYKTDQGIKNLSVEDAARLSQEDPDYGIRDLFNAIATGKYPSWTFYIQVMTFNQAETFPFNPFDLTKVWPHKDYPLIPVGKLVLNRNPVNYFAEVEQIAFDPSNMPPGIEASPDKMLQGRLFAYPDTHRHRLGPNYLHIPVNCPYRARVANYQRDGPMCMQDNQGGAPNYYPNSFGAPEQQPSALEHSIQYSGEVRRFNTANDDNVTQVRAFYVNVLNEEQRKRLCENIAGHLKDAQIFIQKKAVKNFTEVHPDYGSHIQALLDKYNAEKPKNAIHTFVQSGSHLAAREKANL

[2] = compound: CC1=C(SC2=C1C(=N[C@H](C3=NN=C(N32)C)CC(=O)N)C4=CC=C(C=C4)Cl)C
Outline: as §1

[3] = compound: CC1=C2C(=CC=C1)N=C(N(C2=O)C3=CC=CC=C3C)CN4C=NC5=C(N=CN=C54)N
Outline: as §1

[4] = compound: Cc1sc2c(c1C)C(c1ccc(Cl)cc1)=N[C@@H](CC(=O)OC(C)(C)C)c1nnc(C)n1-2
Outline: as §1

[5] = compound: c1ccc([C@@H]2C[C@H]2NC2CCNCC2)cc1
Outline: as §1

Measured: log2 fold change

CCP110 (UniProt O43303)
inactive: [1] -0.026 | [2] 0.093 | [3] 0.104 | [4] -0.143

CCT2 (UniProt P78371)
inactive: [1] -0.013 | [2] 0.005 | [3] -0.014 | [4] 0.019 | [5] 0.019

CCDC144A (UniProt A2RUR9)
inactive: [1] 0.007 | [2] 0.175 | [3] 0.154 | [4] -0.191

CCDC93 (UniProt Q567U6)
inactive: [1] 0.007 | [2] 0.022 | [3] 0.017 | [4] 0.034 | [5] -0.037

CASTOR2 (UniProt A6NHX0)
inactive: [1] 0.011 | [2] 0.019 | [3] 0.033 | [4] 0.083 | [5] 0.021

CCT3 (UniProt E9PM09)
inactive: [1] -0.103 | [2] 0.098 | [3] 0.102 | [4] 0.021

CCNA2 (UniProt P20248)
inactive: [1] 0.013 | [2] -0.006 | [3] -0.003 | [4] -0.021 | [5] -0.068

CBX1 (UniProt P83916)
inactive: [1] 0.031 | [2] -0.03 | [3] 0.032 | [4] 0.009 | [5] 0.13

CAVIN1 (UniProt Q6NZI2)
inactive: [1] 0.038 | [2] 0.044 | [3] -0.027 | [4] 0.001 | [5] 0.003

CD2AP (UniProt Q9Y5K6)
inactive: [1] 0.02 | [2] 0.008 | [3] -0.009 | [4] -0.018 | [5] -0.008

CASP8 isoform 9 (UniProt Q14790)
inactive: [1] -0.034 | [2] 0.014 | [3] 0.089 | [4] 0.036 | [5] 0.014

CBX3 (UniProt Q13185)
inactive: [1] 0.017 | [2] 0.003 | [3] 0.028 | [4] -0.052 | [5] -0.183

CCDC97 (UniProt Q96F63)
inactive: [1] -0.019 | [2] 0.013 | [3] -0.044 | [4] 0.008 | [5] 0.058

CCSMST1 (UniProt Q4G0I0)
inactive: [1] 0.061 | [2] -0.074 | [3] 0.015 | [4] -0.042 | [5] 0.026

CASP6 (UniProt P55212)
inactive: [1] 0.004 | [2] 0.011 | [3] 0.015 | [4] 0.009 | [5] -0.005

CASP10 isoform 4 (UniProt Q92851)
inactive: [1] 0.001 | [2] -0.018 | [3] -0.004 | [4] -0.015 | [5] 0.01

CCDC167 (UniProt Q9P0B6)
inactive: [1] -0.15 | [2] -0.059

CCDC174 (UniProt Q6PII3)
inactive: [1] 0.02 | [2] -0.011 | [3] -0.022 | [4] 0.035 | [5] -0.014

CD226 (UniProt Q15762)
inactive: [1] 0.026 | [2] 0.096

CCDC102A (UniProt Q96A19)
inactive: [1] -0.029 | [2] -0.045 | [3] -0.018

CCDC124 (UniProt Q96CT7)
inactive: [1] 0.049 | [2] -0.037 | [3] -0.014 | [4] -0.007 | [5] 0.034

CCNE1 (UniProt P24864)
inactive: [1] 0.014 | [2] -0.006 | [3] 0.108 | [4] -0.06 | [5] -0.141

CCDC50 (UniProt Q8IVM0)
inactive: [1] -0.015 | [2] 0.054

CCT4 (UniProt P50991)
inactive: [1] -0.012 | [2] 0.015 | [3] -0.005 | [4] 0.057 | [5] -0.032

CCNT2 (UniProt O60583)
inactive: [1] 0.049 | [2] 0.103 | [3] 0.164 | [4] -0.027

CCDC137 (UniProt Q6PK04)
inactive: [1] 0.018 | [2] 0.005 | [3] -0.01 | [4] 0.081 | [5] -0.086

CARHSP1 (UniProt Q9Y2V2)
inactive: [1] -0.031 | [2] 0.027 | [3] 0.019 | [4] -0.053 | [5] 0.005

CBX5 (UniProt P45973)
inactive: [1] 0.04 | [2] -0.002 | [3] -0.038 | [4] 0.031 | [5] -0.135

CCDC59 (UniProt Q9P031)
inactive: [1] 0.032 | [2] 0.033 | [3] -0.004 | [4] -0.03 | [5] -0.069

Reprinted from the listing (two entries):
CBX5 (UniProt P45973)
inactive: [1] 0.04 | [2] -0.002 | [3] -0.038 | [4] 0.031 | [5] -0.135

CCDC59 (UniProt Q9P031)
inactive: [1] 0.032 | [2] 0.033 | [3] -0.004 | [4] -0.03 | [5] -0.069

Remaining list, next part

CC2D1B isoform 2 (UniProt Q5T0F9)
inactive: [1] 0.024 | [2] -0.022 | [3] -0.011 | [4] 0.011 | [5] -0.009

CCDC25 (UniProt Q86WR0)
inactive: [1] 0.008 | [2] 0.035 | [3] 0.023 | [4] -0.015 | [5] 0.164

CCDC43 (UniProt Q96MW1)
inactive: [1] 0.039 | [2] -0.028 | [3] 0.039 | [4] -0.034 | [5] -0.028

CCDC86 (UniProt Q9H6F5)
inactive: [1] 0.013 | [2] 0.069 | [3] -0.001 | [4] -0.044 | [5] -0.089

CCAR1 (UniProt Q8IX12)
inactive: [1] 0.028 | [2] 0.018 | [3] 0.001 | [4] 0.044 | [5] -0.027

CASK (UniProt O14936)
inactive: [1] -0.069 | [2] -0.07 | [3] 0.098 | [4] -0.105 | [5] 0.039

CARD9 (UniProt Q9H257)
inactive: [1] -0.039 | [2] 0.065 | [3] 0.023 | [4] -0.009 | [5] 0.035

CCDC47 (UniProt Q96A33)
inactive: [1] -0.043 | [2] 0.005 | [3] 0.022 | [4] 0.017 | [5] 0.018

CARS isoform 3 (UniProt P49589)
inactive: [1] -0.026 | [2] 0.014 | [3] 0.007 | [4] 0.035 | [5] 0.03

CD81 (UniProt P60033)
inactive: [1] 0.06 | [2] -0.151 | [3] 0.051 | [4] -0.233 | [5] -0.037

CCDC134 (UniProt Q9H6E4)
inactive: [1] 0.015 | [2] 0.012 | [3] 0.057 | [4] 0.01 | [5] 0.02

CCNL2 (UniProt Q96S94)
inactive: [1] 0 | [2] 0.134 | [3] 0.028 | [4] -0.092 | [5] -0.004

CBR4 (UniProt Q8N4T8)
inactive: [1] 0.066 | [2] -0.016 | [3] 0.062 | [4] 0.047 | [5] 0.048

CCZ1 (UniProt P86791)
inactive: [1] 0.01 | [2] -0.022 | [3] 0.011 | [4] -0.01 | [5] 0.013

CCDC51 (UniProt Q96ER9)
inactive: [1] -0.063 | [2] 0.023 | [3] -0.029 | [4] 0.014 | [5] 0.157

CBLB (UniProt Q13191)
inactive: [1] 0.005 | [2] -0.067 | [3] 0.052 | [4] 0.063 | [5] 0.014

CARS2 (UniProt Q9HA77)
inactive: [1] 0.064 | [2] 0.099 | [3] 0.011 | [4] 0.026 | [5] 0.02

CCDC90B (UniProt Q9GZT6)
inactive: [1] -0.064 | [2] 0.022 | [3] 0.024 | [4] -0.077 | [5] -0.018

CCT8 (UniProt P50990)
inactive: [1] -0.001 | [2] 0.017 | [3] -0.001 | [4] 0.009 | [5] 0.013

CARD8 isoform 5 (UniProt Q9Y2G2)
inactive: [1] 0.004 | [2] 0.037 | [3] 0.031 | [4] -0.02 | [5] -0.083

CD151 (UniProt P48509)
inactive: [1] -0.027 | [2] -0.012 | [3] -0.023 | [4] 0.031 | [5] -0.155

CCDC13 (UniProt Q8IYE1)
inactive: [1] -0.09 | [2] -0.099 | [3] 0.089 | [4] -0.448 | [5] 0.007

CAT (UniProt P04040)
inactive: [1] 0.016 | [2] 0.005 | [3] -0.01 | [4] -0.019 | [5] 0.004

CCT3 (UniProt P49368)
inactive: [1] 0.001 | [2] -0.001 | [3] -0.008 | [4] 0.016 | [5] 0.028

CBWD5 (UniProt Q5RIA9)
inactive: [1] -0.079 | [2] 0.065 | [3] 0.052 | [4] -0.04 | [5] 0.039

CASC4 (UniProt Q6P4E1)
inactive: [1] -0.008 | [2] 0.027 | [3] 0.039 | [4] -0.015 | [5] -0.055
